{"source": "PubChem BioAssay AID226", "about": "(DTP/NCI, 2004)", "system": "B6C3F1 mice, intracerebral ependymoblastoma, median survival T/C", "assay": "NCI In Vivo Anticancer Drug Screen. Data for tumor model Ependymoblastoma (intracerebral) in B6C3F1 mice", "settings": "T/C endpoint: median survival time, schedule: Q01DX005 (ip), vehicle: saline, higher T/C = longer survival", "experimental": "The antitumor activity of compounds was measured in mice bearing transplantable tumors. Survival or tumor size were measured and the results are expressed as the measurement made in the treated group (T) divided by the measurement made in the vehicle treated control group (C). The tumor model used in this assay is Ependymoblastoma (intracerebral) in B6C3F1 mice", "note": "The list is a part of this screen's results and no random one: it gathers some chemical classes. Other doses and runs of a compound may be missing. T/C is the treated group as % of the vehicle group. For survival time, the PubChem record calls one and a half times the control and up active, and a quarter to a half above the control has no call in these data; cut-offs in other NCI protocols can differ. Some entries show no survivor count and are marked so; the dose need not have been tolerated. Schedule codes are those of the source, read here as Q, the interval in days (D) or hours (H), X, the number of doses.", "data": [{"smiles": "CN(CCCl)CCCl", "values": [{"measurement": "T/C", "setting": "dose: 0.06 mg/kg/injection", "value": "103 % of control [survivor count not shown]"}, {"measurement": "T/C", "setting": "dose: 0.13 mg/kg/injection", "value": "109 % of control [survivor count not shown]"}, {"measurement": "T/C", "setting": "dose: 0.25 mg/kg/injection", "value": "106 % of control [survivor count not shown]"}, {"measurement": "T/C", "setting": "dose: 0.5 mg/kg/injection", "value": "124 % of control [survivor count not shown]"}, {"measurement": "T/C", "setting": "dose: 1.0 mg/kg/injection", "value": "114 % of control [survivor count not shown]"}]}]}
